Test results as given in patent US5635477A (The DuPont Merck Pharmaceutical Company, priority 1995, dated 1997).

Assay: general procedure: Boc solid-phase peptide synthesis; oxime resin (substitution level=0.96 mmol/g); HBTU or TBTU with N-methylmorpholine
Conditions: for isolated yield: overall
[1] = late stage modification step, TFA salt
[2] = late stage modification step, acetate salt
[3] = whole synthesis, scale 0.283 mmol, TFA salt
[4] = whole synthesis, scale 0.101 mmol, TFA salt
[5] = late stage modification step, fluoride salt
[6] = whole synthesis, scale 0.586 mmol, TFA salt
[7] = whole synthesis, scale 0.611 mmol, TFA salt
[8] = whole synthesis, scale 0.43 mmol, TFA salt
[9] = whole synthesis, scale 0.244 mmol, TFA salt
[10] = whole synthesis, scale 0.266 mmol, TFA salt
[11] = whole synthesis, scale 0.202 mmol, TFA salt
[12] = whole synthesis, scale 0.115 mmol, TFA salt

With “4,4'-Dinitrobenzophenone Oxime Boc-D-Val-NMeArg(Tos)-Gly-ASp(OcHex)-2-aminomethylphenylacetate” as the substance, how does the step yield (coupling step, TFA salt) read?
Its step yield is 95%.

Which step yield [1] does the source give for “Cyclo[L-aspartyl(pivaloyloxymethyl)-3-(aminomethyl)benzoyl-D-2-aminobutyryl-L-arginyl-glycyl]” here?
Its step yield is 26%.

Which cyclisation yield (cyclisation step, TFA salt) does the source give for “Cyclo[L-aspartyl(t-butyl)-3-(aminomethyl)benzoyl-D-2-aminobutyryl-N^ω, N^ω '-(bisbenzyloxycarbonyl)-L-arginyl-glycyl]” here?
Its cyclisation yield is 90%.

For “Cyclo[L-aspartyl-3-(aminomethyl)benzoyl-D-2-aminobutyryl-N^ω, N^ω '-(bisbenzyloxycarbonyl)-L-arginyl-glycyl]”, which step yield [1] is on record?
Its step yield is 97%.

For “PEPTIDE1{F.R.G.D.[Mamb]}$PEPTIDE1,PEPTIDE1,1:R1-5:R2$$$V2.0”, which step yield [2] is on record?
Its step yield is 98%.

And the step yield (purification step, TFA salt)?
The step yield was 32%.

And the isolated yield (whole synthesis, TFA salt)?
Its isolated yield is 31.5%.

What about the crude mass (whole synthesis, scale 0.335 mmol, TFA salt) of the same substance?
The crude mass was 306 mg.

Which step yield (purification step, TFA salt) does the source give for “PEPTIDE1{G.R.G.D.[Mamb]}$PEPTIDE1,PEPTIDE1,1:R1-5:R2$$$V2.0” here?
Its step yield is 36%.

And the isolated yield (whole synthesis, TFA salt)?
Its isolated yield is 19.9%.

And the crude mass [3]?
The crude mass was 62 mg.

And the crude yield [3]?
Its crude yield is 58%.

Which results are given for “PEPTIDE1{[D-Abu].R.G.D.[Mamb]}$PEPTIDE1,PEPTIDE1,1:R1-5:R2$$$V2.0”?
step yield [2]: 99%; step yield (purification step, TFA salt): 57%; isolated yield (whole synthesis, TFA salt): 72.2%; crude mass (whole synthesis, scale 0.193 mmol, TFA salt): 210 mg

What does the source list for “PEPTIDE1{[D-Abu].[NMeArg].G.D.[4I-Mamb]}$PEPTIDE1,PEPTIDE1,1:R1-5:R2$$$V2.0”?
step yield (purification step, TFA salt): 28.7% recovery; isolated yield (whole synthesis, TFA salt): overall yield 30.2%; crude mass (whole synthesis, protected cyclic peptide, scale 3.53 mmol, TFA salt): 4070 mg

For “PEPTIDE1{[D-Abu].[NMeArg].G.D.[Mamb6Cl]}$PEPTIDE1,PEPTIDE1,1:R1-5:R2$$$V2.0”, which step yield [1] is on record?
The step yield was 41%.

Which step yield [1] does the source give for “PEPTIDE1{[D-Abu].[NMeArg].G.D.[Mamb6I]}$PEPTIDE1,PEPTIDE1,1:R1-5:R2$$$V2.0” here?
The step yield was 49%.

Which step yield [1] does the source give for “PEPTIDE1{[D-Abu].[NMeArg].G.D.[Mamb6Me]}$PEPTIDE1,PEPTIDE1,1:R1-5:R2$$$V2.0” here?
Its step yield is 28%.

What does the source list for “PEPTIDE1{[D-Abu].[NMeArg].G.D.[Mamb]}$PEPTIDE1,PEPTIDE1,1:R1-5:R2$$$V2.0”?
step yield (late stage modification step, on protected cyclic peptide, TFA salt): 68.7%; step yield (purification step, TFA salt): 31% recovery; isolated yield (whole synthesis, TFA salt): 12.4%; crude mass [4]: 51 mg; crude yield [4]: 63%

For “PEPTIDE1{[D-Nle].[NMeArg].G.D.[Mamb]}$PEPTIDE1,PEPTIDE1,1:R1-5:R2$$$V2.0”, which step yield [5] is on record?
Its step yield is 95.4%.

And the step yield (purification step, TFA salt)?
The step yield was 44%.

What about the isolated yield (whole synthesis, TFA salt) of the same substance?
The isolated yield was 22.9%.

What about the crude mass [6] of the same substance?
Its crude mass is 305 mg.

And the crude yield [6]?
Its crude yield is 63.3%.

What does the source list for “PEPTIDE1{[D-Phg].[NMeArg].G.D.[Mamb]}$PEPTIDE1,PEPTIDE1,1:R1-5:R2$$$V2.0”?
step yield [5]: 98.9%; step yield (purification step, TFA salt): 24.2%; isolated yield (whole synthesis, TFA salt): 11.9%; crude mass [7]: 296 mg; crude yield [7]: 57.4%

Which step yield [2] does the source give for “PEPTIDE1{[NMeGly].[NMeArg].G.D.[Mamb]}$PEPTIDE1,PEPTIDE1,1:R1-5:R2$$$V2.0” here?
The step yield was 97%.

And the step yield (purification step, TFA salt)?
The step yield was 14.7%.

And the isolated yield (whole synthesis, TFA salt)?
The isolated yield was 7.9%.

What about the crude mass [8] of the same substance?
Its crude mass is 205 mg.

What about the crude yield [8] of the same substance?
Its crude yield is 60%.

Which results are given for “PEPTIDE1{[bAla].[NMeArg].G.D.[Mamb]}$PEPTIDE1,PEPTIDE1,1:R1-5:R2$$$V2.0”?
step yield (purification step, TFA salt): 53.2%; isolated yield (whole synthesis, TFA salt): 32.5%; crude mass [6]: 264 mg; crude yield [6]: 57.5%

What does the source list for “PEPTIDE1{[dA].R.G.D.[Mamb]}$PEPTIDE1,PEPTIDE1,1:R1-5:R2$$$V2.0”?
step yield [2]: 83%; step yield (purification step, TFA salt): 12.5%; isolated yield (whole synthesis, TFA salt): 13.8%; crude mass (whole synthesis, scale 0.189 mmol, TFA salt): 211 mg

What does the source list for “PEPTIDE1{[dA].[NMeArg].G.D.[Mamb]}$PEPTIDE1,PEPTIDE1,1:R1-5:R2$$$V2.0”?
difficulty met (whole synthesis, TFA salt): Recoupling of the Boc-N-MeArg(Tos) residue was found to be necessary; crude mass [9]: 117 mg; crude yield [9]: 61%

What does the source list for “PEPTIDE1{[dF].R.G.D.[Mamb]}$PEPTIDE1,PEPTIDE1,1:R1-5:R2$$$V2.0”?
step yield (purification step, TFA salt): 35%; isolated yield (whole synthesis, TFA salt): 29.3%; crude mass [10]: 202 mg; crude yield [10]: 90%

With “PEPTIDE1{[dF].[NMeArg].G.D.[Mamb]}$PEPTIDE1,PEPTIDE1,1:R1-5:R2$$$V2.0” as the substance, how does the step yield (purification step, TFA salt) read?
The step yield was 35%.

And the isolated yield (whole synthesis, TFA salt)?
The isolated yield was 8.7%.

And the crude mass [7]?
Its crude mass is 140 mg.

And the crude yield [7]?
The crude yield was 26.7%.

Which step yield (late stage modification step, difluoride salt) does the source give for “PEPTIDE1{[dK].[NMeArg].G.D.[Mamb]}$PEPTIDE1,PEPTIDE1,1:R1-5:R2$$$V2.0” here?
Its step yield is 79.1%.

What about the step yield (purification step, TFA salt) of the same substance?
Its step yield is 33.6%.

What about the isolated yield (whole synthesis, TFA salt) of the same substance?
Its isolated yield is 12.1%.

And the crude mass [6]?
Its crude mass is 349 mg.

And the crude yield [6]?
The crude yield was 58.9%.

With “PEPTIDE1{[dL].R.G.D.[Mamb]}$PEPTIDE1,PEPTIDE1,1:R1-5:R2$$$V2.0” as the substance, how does the step yield [2] read?
Its step yield is 66%.

And the step yield (purification step, TFA salt)?
The step yield was 26%.

What about the isolated yield (whole synthesis, TFA salt) of the same substance?
The isolated yield was 14.8%.

What about the crude mass [11] of the same substance?
The crude mass was 152 mg.

What about the crude yield [11] of the same substance?
The crude yield was 93%.

What does the source list for “PEPTIDE1{[dL].[NMeArg].G.D.[Mamb]}$PEPTIDE1,PEPTIDE1,1:R1-5:R2$$$V2.0”?
step yield [2]: 63%; step yield (purification step, TFA salt): 29%; isolated yield (whole synthesis, TFA salt): 16.5%; crude mass [12]: 92.4 mg; crude yield [12]: 98%

HELM strings list residues between dots; [ac] is acetyl, [am] amide, other brackets name non-standard units.
